The target of the assay is wild-type integrin αIIbβ3, full-length, expressed on 293T cells (human) (UniProt P08514+P05106). The experiment in a line: FITC-fibrinogen binding to 293T transfectants, flow cytometry. For orientation: In flow cytometry, cells or beads pass a laser one at a time.

The chains behind the UniProt entries cited, without tags or fusion partners. Where a name states a change or a piece, a line headed by the entry shows the natural chain unless it says otherwise.
UniProt P08514: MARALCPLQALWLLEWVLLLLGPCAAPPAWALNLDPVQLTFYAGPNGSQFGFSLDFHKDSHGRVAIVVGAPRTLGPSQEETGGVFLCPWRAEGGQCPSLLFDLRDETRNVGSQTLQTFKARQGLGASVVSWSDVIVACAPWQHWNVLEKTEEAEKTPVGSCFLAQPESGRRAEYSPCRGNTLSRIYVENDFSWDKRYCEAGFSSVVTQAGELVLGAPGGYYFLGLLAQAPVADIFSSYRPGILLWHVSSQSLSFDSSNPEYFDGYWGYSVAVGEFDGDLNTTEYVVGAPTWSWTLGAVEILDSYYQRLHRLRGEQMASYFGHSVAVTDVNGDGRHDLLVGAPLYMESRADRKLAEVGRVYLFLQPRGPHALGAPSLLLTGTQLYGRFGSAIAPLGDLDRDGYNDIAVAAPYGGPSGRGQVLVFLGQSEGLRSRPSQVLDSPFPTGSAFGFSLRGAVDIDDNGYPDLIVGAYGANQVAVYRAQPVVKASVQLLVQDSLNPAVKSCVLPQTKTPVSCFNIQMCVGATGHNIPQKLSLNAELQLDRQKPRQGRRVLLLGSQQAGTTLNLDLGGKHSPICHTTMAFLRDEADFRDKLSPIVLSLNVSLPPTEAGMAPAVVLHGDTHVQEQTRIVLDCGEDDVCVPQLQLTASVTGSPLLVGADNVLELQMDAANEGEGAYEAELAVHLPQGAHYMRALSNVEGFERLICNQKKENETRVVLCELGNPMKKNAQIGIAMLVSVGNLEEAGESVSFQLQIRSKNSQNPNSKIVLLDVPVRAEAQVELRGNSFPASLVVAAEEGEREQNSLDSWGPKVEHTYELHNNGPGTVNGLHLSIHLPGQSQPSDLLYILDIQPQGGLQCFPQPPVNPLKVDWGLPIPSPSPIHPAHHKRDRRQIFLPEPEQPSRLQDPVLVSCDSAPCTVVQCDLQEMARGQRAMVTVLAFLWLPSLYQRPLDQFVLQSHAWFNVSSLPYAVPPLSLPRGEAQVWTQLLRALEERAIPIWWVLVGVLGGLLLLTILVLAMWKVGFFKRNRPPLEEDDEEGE
UniProt P05106: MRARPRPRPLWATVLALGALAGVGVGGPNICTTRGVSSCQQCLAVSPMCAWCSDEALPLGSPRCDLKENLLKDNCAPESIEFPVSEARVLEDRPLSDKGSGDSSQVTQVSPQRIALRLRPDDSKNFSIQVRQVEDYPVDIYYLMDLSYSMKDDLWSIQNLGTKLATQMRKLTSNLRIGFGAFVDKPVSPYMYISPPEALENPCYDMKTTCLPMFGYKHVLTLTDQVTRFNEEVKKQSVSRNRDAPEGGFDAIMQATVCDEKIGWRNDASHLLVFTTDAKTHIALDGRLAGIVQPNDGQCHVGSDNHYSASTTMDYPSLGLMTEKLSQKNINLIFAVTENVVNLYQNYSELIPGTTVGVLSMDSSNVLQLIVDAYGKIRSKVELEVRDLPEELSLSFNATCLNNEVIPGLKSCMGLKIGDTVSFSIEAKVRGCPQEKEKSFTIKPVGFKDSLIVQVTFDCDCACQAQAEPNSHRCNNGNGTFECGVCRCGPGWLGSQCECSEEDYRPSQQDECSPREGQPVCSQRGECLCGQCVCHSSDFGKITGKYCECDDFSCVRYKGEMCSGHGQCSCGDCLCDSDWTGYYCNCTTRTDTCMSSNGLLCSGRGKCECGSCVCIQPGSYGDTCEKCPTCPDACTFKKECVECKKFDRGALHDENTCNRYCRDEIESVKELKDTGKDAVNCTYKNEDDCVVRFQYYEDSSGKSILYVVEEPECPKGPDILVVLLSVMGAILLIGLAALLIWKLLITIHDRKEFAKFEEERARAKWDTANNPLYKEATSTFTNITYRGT
UniProt P02671: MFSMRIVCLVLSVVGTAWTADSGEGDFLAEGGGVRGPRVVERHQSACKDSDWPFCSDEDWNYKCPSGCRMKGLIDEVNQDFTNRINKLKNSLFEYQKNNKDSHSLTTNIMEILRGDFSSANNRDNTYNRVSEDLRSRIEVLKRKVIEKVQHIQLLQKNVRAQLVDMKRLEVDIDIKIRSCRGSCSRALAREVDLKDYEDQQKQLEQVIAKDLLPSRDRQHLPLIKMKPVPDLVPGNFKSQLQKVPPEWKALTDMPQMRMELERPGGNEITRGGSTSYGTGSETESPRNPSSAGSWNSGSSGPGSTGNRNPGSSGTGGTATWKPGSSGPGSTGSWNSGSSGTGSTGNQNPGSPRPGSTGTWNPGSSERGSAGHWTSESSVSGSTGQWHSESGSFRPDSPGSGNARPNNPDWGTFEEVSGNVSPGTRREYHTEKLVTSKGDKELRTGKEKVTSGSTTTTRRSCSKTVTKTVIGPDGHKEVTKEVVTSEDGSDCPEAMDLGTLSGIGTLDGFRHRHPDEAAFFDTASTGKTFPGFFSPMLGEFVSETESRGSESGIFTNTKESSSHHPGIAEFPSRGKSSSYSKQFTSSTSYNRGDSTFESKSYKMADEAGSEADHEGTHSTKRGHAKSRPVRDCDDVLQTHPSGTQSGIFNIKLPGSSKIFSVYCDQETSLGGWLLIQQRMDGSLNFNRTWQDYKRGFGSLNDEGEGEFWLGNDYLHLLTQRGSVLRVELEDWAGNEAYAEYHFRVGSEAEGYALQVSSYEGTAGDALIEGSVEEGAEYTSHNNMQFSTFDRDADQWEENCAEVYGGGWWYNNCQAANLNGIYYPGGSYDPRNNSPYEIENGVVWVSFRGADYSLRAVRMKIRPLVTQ

No constants are given. Whether binding was seen depends on the method and setting. Some results given as binding are weak or reduced against the parent protein; the word gives no strength.

In the case of “FITC-conjugated soluble fibrinogen (from UniProt P02671 20-629; P02675 31-491; P02679 27-437) (ligand)”, the binding entry is reported as “binds”.

The values are drawn from US20160084825A1.
